# Data source: PubChem BioAssay AID1259308 (NCATS, 2017)
# Test: 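Knock-downs that increase output of a recombinant reporter protein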 (primary screen)
# System: human HEK293 embryonic kidney cells stably expressing firefly luciferase (HEK-CMV-Luc2-Hygro)
# Reagent: single siRNA against human genes, 0.8 pmol siRNA per well
# Duration: 72 h
# Read-out: 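Luciferase light (ONE-Glo) measured on one replicate plate set and viability (CellTiter-Glo) on the other, scaled to a negative control siRNA, with robust z-scores and luciferase per cell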
# Reading the numbers: total luciferase, z-score and total luciferase, % of control: higher = more reporter protein produced
# Hit rule: 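Active when the median/MAD z-score for overall luciferase is greater than 3; a gene was taken forward for validation with new siRNAs if at least two of its three siRNAs passed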
# Calls: active = raised luciferase; inactive = no rise
# In all, the deposit lists about 59,000 reagents; below is a random part of them. About 1,510 of all reagents (2.6%) were called active. 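Calls use total luciferase alone and ignore viability, so some active siRNAs may act by altering cell number.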 Reagents against one gene are numbered here. Not all columns of the deposit are shown.
gene symbol,reagent no.,"total luciferase, z-score","total luciferase, % of control",call
OTC (GeneID 5009),1,-0.505,71.8,inactive
OTC (GeneID 5009),2,-0.517,71.6,inactive
OTC (GeneID 5009),3,2.48,131,inactive
LRWD1 (GeneID 222229),1,0.583,93.5,inactive
LRWD1 (GeneID 222229),2,-0.935,63.3,inactive
LRWD1 (GeneID 222229),3,0.703,95.9,inactive
PHC1P1 (GeneID 653441),1,-0.26,76.7,inactive
PHC1P1 (GeneID 653441),2,-0.729,67.4,inactive
PHC1P1 (GeneID 653441),3,2.29,127,inactive
COMMD3 (GeneID 23412),1,0.194,85.7,inactive
COMMD3 (GeneID 23412),2,-0.783,66.3,inactive
COMMD3 (GeneID 23412),3,-0.241,77.1,inactive
SYNGR3 (GeneID 9143),1,-0.212,77.7,inactive
SYNGR3 (GeneID 9143),2,0.209,86,inactive
SYNGR3 (GeneID 9143),3,0.588,93.6,inactive
NMT2 (GeneID 9397),1,-0.729,67.4,inactive
NMT2 (GeneID 9397),2,-0.278,76.4,inactive
NMT2 (GeneID 9397),3,-0.436,73.2,inactive
ADGRA1 (GeneID 84435),1,0.168,85.2,inactive
ADGRA1 (GeneID 84435),2,-0.221,77.5,inactive
ADGRA1 (GeneID 84435),3,-0.0732,80.4,inactive
ZNF195 (GeneID 7748),1,-0.301,75.9,inactive
ZNF195 (GeneID 7748),2,0.832,98.4,inactive
ZNF195 (GeneID 7748),3,7.87,238,active
GFRAL (GeneID 389400),1,2.18,125,inactive
GFRAL (GeneID 389400),2,-0.649,69,inactive
GFRAL (GeneID 389400),3,-0.128,79.3,inactive
ITM2A (GeneID 9452),1,-2.08,40.5,inactive
ITM2A (GeneID 9452),2,-1.62,49.7,inactive
ITM2A (GeneID 9452),3,-0.46,72.7,inactive
RPSAP12 (GeneID 387867),1,-3.04,21.4,inactive
RPSAP12 (GeneID 387867),2,-2.45,33.2,inactive
RPSAP12 (GeneID 387867),3,0.842,98.6,inactive
MRPL34 (GeneID 64981),1,-0.689,68.2,inactive
MRPL34 (GeneID 64981),2,-0.319,75.5,inactive
MRPL34 (GeneID 64981),3,1.05,103,inactive
CPAMD8 (GeneID 27151),1,-0.434,73.3,inactive
CPAMD8 (GeneID 27151),2,-1.66,48.9,inactive
CPAMD8 (GeneID 27151),3,-0.494,72.1,inactive
RAD54B (GeneID 25788),1,0.826,98.3,inactive
RAD54B (GeneID 25788),2,-1.19,58.3,inactive
RAD54B (GeneID 25788),3,-0.69,68.2,inactive
HTATSF1 (GeneID 27336),1,0.104,84,inactive
HTATSF1 (GeneID 27336),2,0.787,97.5,inactive
HTATSF1 (GeneID 27336),3,0.564,93.1,inactive
H2AJ (GeneID 55766),1,-0.0535,80.8,inactive
H2AJ (GeneID 55766),2,0.308,88,inactive
H2AJ (GeneID 55766),3,0.05,82.9,inactive
HMG20B (GeneID 10362),1,-0.461,72.7,inactive
HMG20B (GeneID 10362),2,-0.00978,81.7,inactive
HMG20B (GeneID 10362),3,0.541,92.6,inactive
PRKCD (GeneID 5580),1,2.18,125,inactive
PRKCD (GeneID 5580),2,-0.481,72.3,inactive
PRKCD (GeneID 5580),3,-0.0716,80.5,inactive
METTL17 (GeneID 64745),1,0.0163,82.2,inactive
METTL17 (GeneID 64745),2,1.74,117,inactive
METTL17 (GeneID 64745),3,0.456,91,inactive

Entries above whose target name begins with O or o:
gene symbol,reagent no.,"total luciferase, z-score","total luciferase, % of control",call
OTC (GeneID 5009),1,-0.505,71.8,inactive
OTC (GeneID 5009),2,-0.517,71.6,inactive
OTC (GeneID 5009),3,2.48,131,inactive
